# In the supplement of paper PMC8728848:
# Some of the results follow.
# B1: CcfD (Bacteroides fragilis), Q5L9G4 (protein)
# chain: MKKQNSIYTLLIALLCFVSSCDYLGVSDQLAGGLQNTEQVFDNVSYTKRWYANVFAGIPDYSGINSVNVGAFKNPWTGMCDELVVGYGNSSKYNNSDRNAANMGFHRYGDCYKYIRQANIFLQKAHPIMTTGTQGDQLLEDELTQMKANVRFMRAFYHYLLFEQYGPIILVKDKIYNATEDQDVPRNTVDEVIEYIDSELTAVASELTQEPIFEDKDYRAWPTKGVALAVRAKLWLYAASPLLNGGYREALSVTNPDGTRLFPDYDAGKWEKALAACKDFIDYAEAGRYELYKEYKDDNGAVIDPDKSVYNLFQKYTHEIIWATANNDWGGMNGDAFDRRIAPRCEKNGLGSTGVTQELVDAFYMKDGFPVSATAYLPQSTLYQEEGYGTYKDQNDNFSKKYTNVTVSNRYLNREPRFYNTVFFNGRQWPVSCNQVLFYNGGNSGVQEGQATLTGYMLFKRFNRSVSLTNPGVASQFRPSIIFRLADFYLMYAEAANEVNPNDARVLKYLNLVRERAGLPDIETLNPAIRGNQELQRAAIQRERQIELATEGQRYFDVRRWMIADKNGEGRQNGYVHGMNVRGESNDKEDFNRIVEASQIVFNRKMYLYPMPDSEMRKTKNLVQNPGW
# Experiments:
# Assay in all cases: glycan array binding signal (z-score within array); higher = stronger binding
# Settings in all cases: glycan notation: IUPAC condensed, linker removed
# [1] = molecular target: Man(a1-2)Man(a1-3)[Man(a1-2)Man(a1-6)]Man
# Summary of the method: (§1)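 The binding signal is a Z-score computed within each array. Data were drawn from 3228 arrays in the Consortium for Functional Glycomics database, restricted to those with a known protein sequence. Scores were averaged over arrays of the same protein sequence at different concentrations or buffers, and over linkers, and negative values can be taken as non-binding.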
# [2] = molecular target: Man(a1-2)Man(a1-3)[Man(a1-2)Man(a1-6)]Man(a1-6)[Man(a1-2)Man(a1-2)Man(a1-3)]Man
# Summary of the method: as §1
# [3] = molecular target: Man(a1-2)Man(a1-3)[Man(a1-2)Man(a1-6)]Man(a1-6)[Man(a1-2)Man(a1-2)Man(a1-3)]Man(b1-4)GlcNAc(b1-4)GlcNAc
# Summary of the method: as §1
# [4] = molecular target: Man(a1-2)Man(a1-3)[Man(a1-6)]Man(a1-6)[Man(a1-2)Man(a1-3)]Man(b1-4)GlcNAc(b1-4)GlcNAc
# Summary of the method: as §1
# [5] = molecular target: Man(a1-2)Man(a1-6)[Man(a1-3)]Man(a1-6)[Man(a1-2)Man(a1-2)Man(a1-3)]Man
# Summary of the method: as §1
# [6] = molecular target: Man(a1-2)Man(a1-6)[Man(a1-3)]Man(a1-6)[Man(a1-2)Man(a1-2)Man(a1-3)]Man(b1-4)GlcNAc(b1-4)GlcNAc
# Summary of the method: as §1
# Man(a1-3)[Man(a1-6)]Man = molecular target: Man(a1-3)[Man(a1-6)]Man
# Summary of the method: as §1
# [7] = molecular target: Man(a1-3)[Man(a1-6)]Man(a1-6)[Man(a1-2)Man(a1-3)]Man(b1-4)GlcNAc(b1-4)GlcNAc
# Summary of the method: as §1
# [8] = molecular target: Man(a1-3)[Man(a1-6)]Man(a1-6)[Man(a1-3)]Man
# Summary of the method: as §1
# [9] = molecular target: Man(a1-3)[Man(a1-6)]Man(a1-6)[Man(a1-3)]Man(b1-4)GlcNAc(b1-4)GlcNAc
# Summary of the method: as §1
# [10] = molecular target: Man(a1-3)[Man(a1-6)]Man(b1-4)GlcNAc(b1-4)GlcNAc
# Summary of the method: as §1
# [11] = molecular target: Man(a1-3)[Man(a1-6)]Man(b1-4)GlcNAc(b1-4)[Fuc(a1-6)]GlcNAc
# Summary of the method: as §1
# Man(a1-6)Man = molecular target: Man(a1-6)Man
# Summary of the method: as §1
# Man(b1-4)GlcNAc = molecular target: Man(b1-4)GlcNAc
# Summary of the method: as §1
# MurNAc(b1-4)GlcNAc = molecular target: MurNAc(b1-4)GlcNAc
# Summary of the method: as §1
# Neu5Ac(a2-3)Gal = molecular target: Neu5Ac(a2-3)Gal
# Summary of the method: as §1
# [12] = molecular target: Neu5Ac(a2-3)Gal(b1-3)GalNAc
# Summary of the method: as §1
# [13] = molecular target: Neu5Ac(a2-3)Gal(b1-3)GalNAc(b1-3)Gal(a1-4)Gal(b1-4)Glc
# Summary of the method: as §1
# [14] = molecular target: Neu5Ac(a2-3)Gal(b1-3)GalNAc(b1-4)Gal(b1-4)Glc
# Summary of the method: as §1
# [15] = molecular target: Neu5Ac(a2-3)Gal(b1-3)GalNAc(b1-4)[Neu5Ac(a2-3)]Gal(b1-4)Glc
# Summary of the method: as §1
# [16] = molecular target: Neu5Ac(a2-3)Gal(b1-3)GalNAc(b1-4)[Neu5Ac(a2-8)Neu5Ac(a2-3)]Gal(b1-4)Glc
# Summary of the method: as §1
# [17] = molecular target: Neu5Ac(a2-3)Gal(b1-3)GalNAc6S
# Summary of the method: as §1
# [18] = molecular target: Neu5Ac(a2-3)Gal(b1-3)GlcNAc
# Summary of the method: as §1
# [19] = molecular target: Neu5Ac(a2-3)Gal(b1-3)GlcNAc(b1-2)Man
# Summary of the method: as §1
# [20] = molecular target: Neu5Ac(a2-3)Gal(b1-3)GlcNAc(b1-2)Man(a1-3)[GlcNAc(b1-4)][Neu5Ac(a2-3)Gal(b1-3)GlcNAc(b1-2)Man(a1-6)]Man(b1-4)GlcNAc(b1-4)GlcNAc
# Summary of the method: as §1
# [21] = molecular target: Neu5Ac(a2-3)Gal(b1-3)GlcNAc(b1-2)Man(a1-3)[Neu5Ac(a2-3)Gal(b1-3)GlcNAc(b1-2)Man(a1-6)]Man(b1-4)GlcNAc(b1-4)GlcNAc
# Summary of the method: as §1
# [22] = molecular target: Neu5Ac(a2-3)Gal(b1-3)GlcNAc(b1-2)[Neu5Ac(a2-3)Gal(b1-3)GlcNAc(b1-4)]Man(a1-6)[Neu5Ac(a2-3)Gal(b1-3)GlcNAc(b1-2)Man(a1-3)]Man(b1-4)GlcNAc(b1-4)GlcNAc
# Summary of the method: as §1
# [23] = molecular target: Neu5Ac(a2-3)Gal(b1-3)GlcNAc(b1-3)Gal(b1-3)GlcNAc
# Summary of the method: as §1
# [24] = molecular target: Neu5Ac(a2-3)Gal(b1-3)GlcNAc(b1-3)Gal(b1-4)GlcNAc
# Summary of the method: as §1
# [25] = molecular target: Neu5Ac(a2-3)Gal(b1-3)GlcNAc(b1-3)GalNAc
# Summary of the method: as §1
binder,measurement,setting,value
B1,glycan array binding signal (z-score),[1],-0.404
same,glycan array binding signal (z-score),[2],2.93
same,glycan array binding signal (z-score),[3],-0.102
same,glycan array binding signal (z-score),[4],-0.496
same,glycan array binding signal (z-score),[5],-0.778
same,glycan array binding signal (z-score),[6],-0.667
same,glycan array binding signal (z-score),Man(a1-3)[Man(a1-6)]Man,-0.253
same,glycan array binding signal (z-score),[7],0.614
same,glycan array binding signal (z-score),[8],-0.837
same,glycan array binding signal (z-score),[9],-0.181
same,glycan array binding signal (z-score),[10],-0.312
same,glycan array binding signal (z-score),[11],0.745
same,glycan array binding signal (z-score),Man(a1-6)Man,-1.12
same,glycan array binding signal (z-score),Man(b1-4)GlcNAc,1.19
same,glycan array binding signal (z-score),MurNAc(b1-4)GlcNAc,1.37
same,glycan array binding signal (z-score),Neu5Ac(a2-3)Gal,-0.883
same,glycan array binding signal (z-score),[12],0.795
same,glycan array binding signal (z-score),[13],-0.765
same,glycan array binding signal (z-score),[14],-0.548
same,glycan array binding signal (z-score),[15],0.831
same,glycan array binding signal (z-score),[16],-1.11
same,glycan array binding signal (z-score),[17],-0.634
same,glycan array binding signal (z-score),[18],-0.841
same,glycan array binding signal (z-score),[19],-0.66
same,glycan array binding signal (z-score),[20],1.28
same,glycan array binding signal (z-score),[21],-0.896
same,glycan array binding signal (z-score),[22],2.28
same,glycan array binding signal (z-score),[23],-0.647
same,glycan array binding signal (z-score),[24],-0.91
same,glycan array binding signal (z-score),[25],-0.371

# A second format for some results above:
binder	measurement	setting	value
B1	glycan array binding signal (z-score)	[13]	-0.765
same	glycan array binding signal (z-score)	[14]	-0.548
